From patent publication US20230312744A1, “Modulatory Substance of Tumor Immune Microenvironment, and Preventive, Diagnostic and/or Therapeutic Utilization of the Same” (The University Of Tokyo, priority 2020, published 2023) come the findings set out here.

Sequences of proteins named here, by UniProt entry; tags and fusion partners are left off.
UniProt O60603: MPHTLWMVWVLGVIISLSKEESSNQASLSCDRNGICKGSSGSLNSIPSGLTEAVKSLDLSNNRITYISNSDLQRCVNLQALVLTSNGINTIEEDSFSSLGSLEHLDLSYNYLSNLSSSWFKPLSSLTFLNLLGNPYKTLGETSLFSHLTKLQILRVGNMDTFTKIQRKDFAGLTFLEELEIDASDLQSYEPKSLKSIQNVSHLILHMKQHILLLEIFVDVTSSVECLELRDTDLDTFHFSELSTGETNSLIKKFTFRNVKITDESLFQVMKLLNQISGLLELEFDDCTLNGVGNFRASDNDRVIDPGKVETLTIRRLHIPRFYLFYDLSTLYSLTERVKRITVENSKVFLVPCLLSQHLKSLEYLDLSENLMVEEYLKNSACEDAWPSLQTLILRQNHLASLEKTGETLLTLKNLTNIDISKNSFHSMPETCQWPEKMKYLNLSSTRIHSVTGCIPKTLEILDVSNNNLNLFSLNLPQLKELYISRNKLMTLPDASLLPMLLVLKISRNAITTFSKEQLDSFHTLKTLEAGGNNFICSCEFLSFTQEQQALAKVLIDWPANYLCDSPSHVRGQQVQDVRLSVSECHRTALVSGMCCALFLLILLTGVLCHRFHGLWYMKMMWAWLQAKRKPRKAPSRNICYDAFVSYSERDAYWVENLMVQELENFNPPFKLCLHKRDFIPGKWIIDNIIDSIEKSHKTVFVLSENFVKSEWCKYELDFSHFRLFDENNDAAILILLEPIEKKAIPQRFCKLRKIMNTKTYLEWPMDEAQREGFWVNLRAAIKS

In the test the target is TLR2-YFP (pcDNA3.1-hTLR2-YFP) (human) (UniProt O60603). Put plainly: co-immunoprecipitation from HEK293T lysate with anti-GFP antibody, blot with anti-FLAG antibody.

Results are given in words; binding and its absence hold for the method and conditions named. In cells and extracts the contact can be indirect. Some entries that bind do so weakly or less than the wild type. Tags and fused reporters may be left off the sequences shown.

B1: Flag-TCTP (pCXNII-FLAG-hTCTP) (ligand, human, UniProt P13693 1-172, looked up, not shown: small tags and cut ends)
chain: MIIYRDLISHDEMFSDIYKIREIADGLCLEVEGKMVSRTEGNIDDSLIGGNASAEGPEGEGTESTVITGVDIVMNHHLQETSFTKEAYKKYIKDYMKSIKGKLEEQRPERVKPFMTGAAEQIKHILANFKNYQFFIGENMNPDGMVALLDYREDGVTPYMIFFKDGLEMEKC
With B1, the binding entry is listed as “binds”.
